Experimental data reported in patent US20250032629A1, “NOVEL NUCLEOLIN-BINDING PEPTIDE AND USE THEREOF” (ANYGEN CO., LTD., priority 2020, published 2025).
No constants are given. Whether binding was seen depends on the method and setting. For part of these data: Binding seen in cells or lysates may run through a third protein. Some results given as binding are weak or reduced against the parent protein; the word gives no strength.

By UniProt entry, the sequences of proteins in these tests, tags left out. Where a name states a change or a piece, a line headed by the entry shows the natural chain unless it says otherwise. Residues count along the entry.
UniProt P19338: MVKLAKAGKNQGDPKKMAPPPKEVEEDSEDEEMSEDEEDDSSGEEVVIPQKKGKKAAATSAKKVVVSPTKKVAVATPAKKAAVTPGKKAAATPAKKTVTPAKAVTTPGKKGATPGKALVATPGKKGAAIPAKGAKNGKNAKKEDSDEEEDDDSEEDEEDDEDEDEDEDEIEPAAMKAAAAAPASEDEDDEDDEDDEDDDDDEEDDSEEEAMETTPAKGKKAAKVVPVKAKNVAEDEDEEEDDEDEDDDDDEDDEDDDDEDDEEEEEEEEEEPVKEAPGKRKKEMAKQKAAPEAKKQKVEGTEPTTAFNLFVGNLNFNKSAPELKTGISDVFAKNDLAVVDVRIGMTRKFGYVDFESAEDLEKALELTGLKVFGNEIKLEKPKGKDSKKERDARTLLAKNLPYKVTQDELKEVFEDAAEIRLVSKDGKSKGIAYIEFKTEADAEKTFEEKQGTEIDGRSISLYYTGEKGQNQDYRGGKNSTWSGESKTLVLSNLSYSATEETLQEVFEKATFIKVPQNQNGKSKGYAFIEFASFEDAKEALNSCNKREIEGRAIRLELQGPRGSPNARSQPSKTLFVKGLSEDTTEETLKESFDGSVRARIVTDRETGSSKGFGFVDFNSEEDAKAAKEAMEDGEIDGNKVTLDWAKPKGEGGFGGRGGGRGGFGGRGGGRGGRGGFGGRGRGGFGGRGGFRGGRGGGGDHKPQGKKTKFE
UniProt P12814: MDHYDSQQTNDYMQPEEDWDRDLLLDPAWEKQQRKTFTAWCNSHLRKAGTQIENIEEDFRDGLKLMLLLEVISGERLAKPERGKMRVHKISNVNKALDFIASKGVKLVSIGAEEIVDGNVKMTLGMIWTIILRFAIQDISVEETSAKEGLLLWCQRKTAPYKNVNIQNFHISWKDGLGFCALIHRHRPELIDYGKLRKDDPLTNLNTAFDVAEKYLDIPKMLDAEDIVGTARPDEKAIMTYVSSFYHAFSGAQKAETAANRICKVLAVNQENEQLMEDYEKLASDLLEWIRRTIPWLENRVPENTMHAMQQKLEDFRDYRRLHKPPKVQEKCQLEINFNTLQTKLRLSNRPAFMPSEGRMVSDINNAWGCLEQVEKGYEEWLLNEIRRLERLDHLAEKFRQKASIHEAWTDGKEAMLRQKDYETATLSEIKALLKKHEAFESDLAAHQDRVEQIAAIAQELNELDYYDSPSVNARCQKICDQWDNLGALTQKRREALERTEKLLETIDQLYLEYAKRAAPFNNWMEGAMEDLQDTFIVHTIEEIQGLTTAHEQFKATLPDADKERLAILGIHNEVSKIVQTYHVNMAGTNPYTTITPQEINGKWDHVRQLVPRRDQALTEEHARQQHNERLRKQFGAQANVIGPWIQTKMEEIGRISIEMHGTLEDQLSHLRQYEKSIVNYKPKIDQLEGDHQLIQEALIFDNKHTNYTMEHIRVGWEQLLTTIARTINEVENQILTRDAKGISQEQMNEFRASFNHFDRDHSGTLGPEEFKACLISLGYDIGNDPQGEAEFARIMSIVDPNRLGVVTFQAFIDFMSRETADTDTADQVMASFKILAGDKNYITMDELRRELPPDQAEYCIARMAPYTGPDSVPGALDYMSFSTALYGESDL
UniProt O43707: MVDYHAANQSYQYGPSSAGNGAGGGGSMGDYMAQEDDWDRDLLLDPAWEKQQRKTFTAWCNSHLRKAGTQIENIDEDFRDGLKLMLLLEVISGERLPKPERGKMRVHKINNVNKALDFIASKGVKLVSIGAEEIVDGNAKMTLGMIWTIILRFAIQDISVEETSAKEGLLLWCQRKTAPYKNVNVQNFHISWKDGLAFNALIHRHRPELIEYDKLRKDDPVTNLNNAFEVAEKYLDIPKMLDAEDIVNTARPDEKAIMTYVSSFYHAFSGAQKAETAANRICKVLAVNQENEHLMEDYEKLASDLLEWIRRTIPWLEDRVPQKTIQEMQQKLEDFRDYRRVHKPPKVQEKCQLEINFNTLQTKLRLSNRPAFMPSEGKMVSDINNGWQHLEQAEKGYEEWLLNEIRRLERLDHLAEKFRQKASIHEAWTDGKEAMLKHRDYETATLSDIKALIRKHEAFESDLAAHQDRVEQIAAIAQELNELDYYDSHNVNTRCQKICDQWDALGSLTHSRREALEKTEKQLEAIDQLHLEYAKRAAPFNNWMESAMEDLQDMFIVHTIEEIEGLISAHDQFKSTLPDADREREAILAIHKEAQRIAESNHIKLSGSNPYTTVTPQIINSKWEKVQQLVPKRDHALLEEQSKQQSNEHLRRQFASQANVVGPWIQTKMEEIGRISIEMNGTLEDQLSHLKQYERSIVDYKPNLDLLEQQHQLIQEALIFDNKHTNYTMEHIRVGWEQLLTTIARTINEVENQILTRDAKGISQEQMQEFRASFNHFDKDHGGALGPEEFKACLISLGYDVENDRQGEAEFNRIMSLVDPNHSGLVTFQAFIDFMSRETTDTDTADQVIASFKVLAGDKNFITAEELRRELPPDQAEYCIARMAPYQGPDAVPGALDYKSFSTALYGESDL
UniProt Q9Y678: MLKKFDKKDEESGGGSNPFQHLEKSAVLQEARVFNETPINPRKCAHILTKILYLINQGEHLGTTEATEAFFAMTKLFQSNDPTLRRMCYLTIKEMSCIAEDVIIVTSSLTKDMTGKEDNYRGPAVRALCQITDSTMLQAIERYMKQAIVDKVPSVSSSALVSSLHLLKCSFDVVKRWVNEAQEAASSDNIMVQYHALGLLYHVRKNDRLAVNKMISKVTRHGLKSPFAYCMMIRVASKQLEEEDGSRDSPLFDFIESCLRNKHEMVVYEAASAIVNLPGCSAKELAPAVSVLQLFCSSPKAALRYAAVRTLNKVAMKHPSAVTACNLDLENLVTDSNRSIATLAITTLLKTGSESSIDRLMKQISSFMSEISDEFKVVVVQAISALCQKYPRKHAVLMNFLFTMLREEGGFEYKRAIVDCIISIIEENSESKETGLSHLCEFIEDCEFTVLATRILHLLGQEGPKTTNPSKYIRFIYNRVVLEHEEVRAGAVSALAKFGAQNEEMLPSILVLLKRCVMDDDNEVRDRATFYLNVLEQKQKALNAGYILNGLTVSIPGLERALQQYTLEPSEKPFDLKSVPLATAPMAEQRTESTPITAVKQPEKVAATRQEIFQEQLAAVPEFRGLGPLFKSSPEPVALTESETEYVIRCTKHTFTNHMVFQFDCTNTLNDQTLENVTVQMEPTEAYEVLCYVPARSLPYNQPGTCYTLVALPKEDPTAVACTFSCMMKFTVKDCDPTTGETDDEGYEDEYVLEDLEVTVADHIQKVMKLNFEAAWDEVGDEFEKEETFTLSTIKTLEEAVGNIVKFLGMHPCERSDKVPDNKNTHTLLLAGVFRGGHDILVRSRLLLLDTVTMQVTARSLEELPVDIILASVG
UniProt P14625, residues 22-803: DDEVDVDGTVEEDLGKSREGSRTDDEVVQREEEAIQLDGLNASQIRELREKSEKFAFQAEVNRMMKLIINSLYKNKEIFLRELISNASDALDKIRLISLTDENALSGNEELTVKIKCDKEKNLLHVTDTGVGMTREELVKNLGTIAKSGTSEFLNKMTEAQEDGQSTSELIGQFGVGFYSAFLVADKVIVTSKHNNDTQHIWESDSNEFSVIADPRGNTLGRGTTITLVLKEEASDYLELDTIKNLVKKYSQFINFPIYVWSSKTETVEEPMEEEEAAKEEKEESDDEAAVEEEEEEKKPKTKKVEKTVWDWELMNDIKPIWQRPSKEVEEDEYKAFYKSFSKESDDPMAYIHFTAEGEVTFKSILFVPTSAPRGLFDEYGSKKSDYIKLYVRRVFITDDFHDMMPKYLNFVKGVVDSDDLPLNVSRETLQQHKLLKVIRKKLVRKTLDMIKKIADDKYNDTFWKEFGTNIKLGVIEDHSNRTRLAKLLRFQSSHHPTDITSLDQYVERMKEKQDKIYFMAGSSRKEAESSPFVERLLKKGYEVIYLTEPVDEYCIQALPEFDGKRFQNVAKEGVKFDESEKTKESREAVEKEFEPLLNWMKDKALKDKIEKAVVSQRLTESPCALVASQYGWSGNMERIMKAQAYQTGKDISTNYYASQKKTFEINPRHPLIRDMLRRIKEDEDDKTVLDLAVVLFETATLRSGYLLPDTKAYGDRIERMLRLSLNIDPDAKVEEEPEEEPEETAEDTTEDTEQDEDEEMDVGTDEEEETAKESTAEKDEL
UniProt P55072, residues 2-806: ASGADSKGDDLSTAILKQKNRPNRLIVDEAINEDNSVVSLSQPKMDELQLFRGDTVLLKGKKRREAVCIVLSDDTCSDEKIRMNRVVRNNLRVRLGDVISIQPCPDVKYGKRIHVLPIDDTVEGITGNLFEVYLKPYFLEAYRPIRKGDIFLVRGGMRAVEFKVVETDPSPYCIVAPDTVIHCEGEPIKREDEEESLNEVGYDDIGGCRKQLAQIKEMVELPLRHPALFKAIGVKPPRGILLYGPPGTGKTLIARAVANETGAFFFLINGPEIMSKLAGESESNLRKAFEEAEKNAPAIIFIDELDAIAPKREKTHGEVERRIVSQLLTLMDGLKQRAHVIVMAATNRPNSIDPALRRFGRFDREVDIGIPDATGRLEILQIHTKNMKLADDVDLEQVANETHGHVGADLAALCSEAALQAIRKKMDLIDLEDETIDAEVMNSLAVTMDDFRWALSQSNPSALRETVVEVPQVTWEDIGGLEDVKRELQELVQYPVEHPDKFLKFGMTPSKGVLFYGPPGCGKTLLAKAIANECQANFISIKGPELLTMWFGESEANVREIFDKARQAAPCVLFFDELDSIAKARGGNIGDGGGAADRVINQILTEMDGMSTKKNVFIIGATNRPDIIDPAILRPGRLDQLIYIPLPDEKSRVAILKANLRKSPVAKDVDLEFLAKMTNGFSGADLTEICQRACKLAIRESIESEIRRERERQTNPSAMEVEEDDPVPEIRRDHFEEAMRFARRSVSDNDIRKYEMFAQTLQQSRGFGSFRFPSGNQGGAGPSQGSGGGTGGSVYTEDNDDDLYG

What was measured:
[1] = biological target: T1, membrane nucleolin (NCL) on cancer cells (human, UniProt P19338 2-710); experiment: ELISA on cancer cells, biotin-conjugated PEGylated peptide, avidin-HRP
T1 construct: whole, on cells; also called membrane NCL; membrane-expressed NCL

[2] = biological target: T1, membrane nucleolin (NCL) on cancer cells; experiment: cell ELISA: biotin-conjugated PEGylated peptide on cancer cells (cell line not given), 2 h, avidin-HRP/TMB, absorbance at 450 nm
Description: Cancer cells (1×10⁴ cells/well) were seeded in 96-well plates and cultured for 24 hours, and then the cells were treated with increasing concentrations of 13 biotin-conjugated peptides for 2 hours. Then, avidin-HRP was attached through a high-affinity avidin-biotin interaction, and the TMB substrate was converted to blue through HRP enzyme. Then, the reaction was terminated by adding an acid, and the affinities of the 13 peptides were assessed by ELISA by reading the wells at […].
Cancer cells (1×10⁴ cells/well) were cultured in 96-well plates for 24 hours. AGM-330 and the 12 PEGylated peptides shown Table 2 were biotin-conjugated, and the cells were treated with increasing concentrations of the 13 peptides for 2 hours.
Thereafter, avidin-HRP was attached through a high-affinity avidin-biotin interaction, and the TMB substrate was converted to blue color through HRP enzyme. Then, the reaction was terminated by adding an acid, and the affinities of the 13 peptides were assessed by ELISA by reading the wells at […].

[3] = biological target: nucleolin (NCL) from MDA-MB-231 cell lysate (human) (UniProt P19338); experiment: pull-down assay and LC-MS/MS
[4] = biological target: nucleolin (NCL) from MDA-MB-231 cell lysate (human) (UniProt P19338); experiment: biotin pull-down from MDA-MB-231 lysate, LC-MS/MS
[5] = biological target: purified NCL (from Jurkat cells) (UniProt P19338); experiment: biotin pull-down of purified NCL, anti-NCL immunoblot
[6] = biological target: GFP-NCL (residues 1-710) (human) (UniProt P19338); experiment: biotin pull-down from HEK293T lysates, anti-GFP immunoblot
[7] = biological target: nucleolin (NCL) from MDA-MB-231 cell lysate (human) (UniProt P19338); experiment: biotin pull-down from MDA-MB-231 lysate, LC-MS/MS and anti-NCL immunoblot
ACTN1 (human) = ACTN1 (human) (UniProt P12814); experiment: biotin pull-down from MDA-MB-231 whole lysate on avidin beads, bands cut from the elution lane, LC-MS/MS (Mascot); direct contact not shown, no confirming blot
ACTN4 (human) = ACTN4 (human) (UniProt O43707); experiment: as above
COPG1 (human) = COPG1 (human) (UniProt Q9Y678); experiment: as above
HSP90B1 (human) = HSP90B1 (human) (UniProt P14625); experiment: as above
VCP (human) = VCP (human) (UniProt P55072); experiment: as above
[8] = biological target: T1, membrane nucleolin (NCL) on cancer cells; experiment: double immunofluorescence, confocal microscopy, cancer cells with 5 µmol/l AGM-330-FITC
[9] = biological target: T1, membrane nucleolin (NCL) on cancer cells; experiment: confocal microscopy of MDA-MB-231 cells after knockdown of NCL with siRNA, 5 µmol/l AGM-330-FITC
[10] = biological target: T1, membrane nucleolin (NCL) on cancer cells; experiment: confocal microscopy of MDA-MB-231 cells after knockdown of NCL with siNCL1, 5 µmol/l AGM-330-FITC

Measured: binding

B1: AGM-330 variant R1H2R3H4 → Insertion (SEQ ID NO: 18) (peptide)
peptide: RHRHRHGAMVYLK
modifications: PEGylated; biotin-conjugated (sites not given)
binds: [1] | [2]

B2: Biotinylated AGM-330 (peptide)
peptide: RHGAMVYLK
modifications: biotin-conjugated (site not stated)
binds: [3] | [4] | [5] | [6] | [7] | ACTN1 (human) | ACTN4 (human) | COPG1 (human) | HSP90B1 (human) | VCP (human)

B3: FITC-labeled AGM-330 (peptide)
peptide: RHGAMVYLK
modifications: FITC-labeled (site not stated)
binds: [8] | [9] | [10]
